The target of experiment [1] is T1, TMC-2 (transmembrane channel-like protein 2), native, tagged with mVenus-3xFLAG at the endogenous locus (C. elegans) (UniProt Q11069).
T1 sequence (chain, N-glycans at N225 and N748): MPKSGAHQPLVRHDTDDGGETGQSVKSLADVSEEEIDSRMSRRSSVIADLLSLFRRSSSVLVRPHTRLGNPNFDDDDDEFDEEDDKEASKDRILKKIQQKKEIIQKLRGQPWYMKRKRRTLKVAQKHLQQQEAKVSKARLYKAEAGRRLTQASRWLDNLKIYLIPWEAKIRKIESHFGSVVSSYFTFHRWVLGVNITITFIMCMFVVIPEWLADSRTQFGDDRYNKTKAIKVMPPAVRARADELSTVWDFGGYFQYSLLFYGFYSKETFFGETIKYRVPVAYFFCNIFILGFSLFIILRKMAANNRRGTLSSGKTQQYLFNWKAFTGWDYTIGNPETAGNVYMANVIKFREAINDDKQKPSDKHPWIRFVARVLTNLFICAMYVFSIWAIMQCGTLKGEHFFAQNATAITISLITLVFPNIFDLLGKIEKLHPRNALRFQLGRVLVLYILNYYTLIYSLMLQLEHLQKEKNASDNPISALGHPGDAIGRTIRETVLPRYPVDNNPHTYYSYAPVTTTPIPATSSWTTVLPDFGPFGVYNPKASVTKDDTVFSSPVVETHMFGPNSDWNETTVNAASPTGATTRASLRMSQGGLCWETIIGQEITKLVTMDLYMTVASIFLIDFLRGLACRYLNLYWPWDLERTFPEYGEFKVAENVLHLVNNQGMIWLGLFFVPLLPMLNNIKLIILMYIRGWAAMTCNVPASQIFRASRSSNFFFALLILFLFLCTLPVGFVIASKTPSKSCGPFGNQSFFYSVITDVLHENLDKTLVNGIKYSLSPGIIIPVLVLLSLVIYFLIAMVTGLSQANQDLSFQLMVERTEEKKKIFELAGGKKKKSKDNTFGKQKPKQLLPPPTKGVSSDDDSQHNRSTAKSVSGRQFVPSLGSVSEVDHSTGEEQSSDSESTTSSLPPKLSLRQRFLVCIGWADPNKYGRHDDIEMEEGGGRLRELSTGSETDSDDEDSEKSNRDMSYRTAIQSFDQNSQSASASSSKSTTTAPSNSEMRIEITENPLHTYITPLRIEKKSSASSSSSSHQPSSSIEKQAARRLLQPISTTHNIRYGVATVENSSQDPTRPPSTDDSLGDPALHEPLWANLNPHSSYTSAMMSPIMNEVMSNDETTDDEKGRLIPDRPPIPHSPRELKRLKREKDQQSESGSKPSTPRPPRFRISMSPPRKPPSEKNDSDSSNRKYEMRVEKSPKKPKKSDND
Nature of the experiment: affinity purification with mass spectrometry; native TMC-2-mVenus-3xFLAG complex from tmc2::mVenus worms solubilised in 2% GDN, bound to anti-FLAG M2 magnetic resin, eluted with 3C protease, SEC (Superose 6 Increase; 20 mM Tris-Cl pH 8.0, 150 mM NaCl, 0.02% GDN, 1 mM CaCl2); putative dimeric peak analysed by LC-MS/MS.

For experiment [2], the target named is T1, TMC-2 (transmembrane channel-like protein 2), native, tagged with mVenus-3xFLAG at the endogenous locus (C. elegans). The experiment is described as above. The source holds these as a separate data set.

Like-named read-outs stand apart in the source and are kept apart here. No constants are given. Whether binding was seen depends on the method and setting. Binding seen in cells or lysates may run through a third protein. A yes stands for co-enrichment or nearness to the bait. Other partners may have been found. A no says only that the protein was not detected with the bait. Sequences can lack the tags named with a protein.

With “ARRD-6 (arrestin) (C. elegans (endogenous in worms))”, the binding entry in experiment [1] was “no binding”.
Take “UNC-44, the worm ortholog of mammalian ankyrin (C. elegans (endogenous in worms))”: the binding entry in experiment [1] is “no binding”.
Still for that read-out and setting: in the case of “worm homolog of lipoma HMGIC fusion partner-like 5 (LHFPL5, lhfp-4 in worms) (C. elegans (endogenous in worms))” it was “no binding”; in that of “worm homolog of protocadherin-15 (PCDH15, cdh-5 in worms) (C. elegans (endogenous in worms))”, “no binding”.

B1: TMC-1 (transmembrane channel-like protein 1) (protein, UniProt D3KZG3 1-1285)
chain: MQEAARRASLRKEHTPTNEKFGDLSKQDSLGERASSKLTLDDELYDILYAFGETDAFINKGDKQRETDEDGNPLTRQALLERIRQKKEVIGKLRCQAWSMTRKRRTLKLAQKYLEQHESKVSRSHLYMEEMRKRARLMKRSFSNFKTYLIPWESKIKRIESHFGSVVSSYFTFLRWIVFVNIMITLIALVFVVLPETLADSVANEGRFNRTKTRKQIPANERVHADELAVVWHYDGYLRYSPLFYGYYSDDPFLGNKIKYALPLAYFMVTLTIFAYSFFAILRKMAANARMSKLSGSKAEQYIFNWKLFTGWDYTIGNSETASNTVMAVVIKLRESIADIKKDAHGKFRLLQFSLRVFANIIICAMLGFSIYCIIFAVQKSQVQDDGNLFTKNQVPSVVSTITHVFPMIFDLIGKMENYHPRTALRAHLGRVLILYTVNYITLIFALFEKMTALRDRVNSTSTSSSHRTKRQQGGWNPNMQRPPPYASRAEVRQMSDFLAANTRRFQTVSQRTTRSVTTPFTVAPQFGPFNVNNPNAVFHNGTHSTSFESQILGPKALPIFTPPPRKYPGFTPGNVGQQFGGPDFPRNQVYTKSTPLPRVRTKPPWVYTTTHPPLVQNRAMTTTMSKSAKKGNSKNLDDDILLSNETIQMSEAALRRNHDGHNNDICWETIIGQEIVKLVTMDLIFTILSILVIDLFRGLWIKYCSSWWCWDIETTFPEYGEFKVAENVLHIINNQGMIWLGLFFAPLLPAINNIKLIILMYIRGWAVMTCNVPAREIFRASRSSNFYLGILLIWLLLCTLPVGFVIASMSPSRSCGPFARYQHFYTVVTREIEKRVDQTVLSYIRHIASPGVVIPIILFLILIIYFLFSLVRGLREANTDLQAQLVHERTEEKKKIFELAGGKKNKFEKDRDKKRSNDYIPLIEQRRREPWRQYHEMEADHALASDSSEESDINEDEDDERQPLTAYPLRAIETPPETLQVTAFHPSLGSLIENREMEDEESASGDQLPMIHKSVSFQGPSHMQMRQSISTESCSQISRSAIQVATPEEIRALLRPYLEAKYGIPYQHGIKSFPIDVHTPPNNTPSRRSSKYNSFVSLYEHTRDDHKNFVASTIKETDEDPGKSDKKQTSSKDVAPDFMPWPSADEARALREKMKSKTPLMLTKTTVEEKPKGGKSSESEFRPPVPIHRKYNIQTTEEENEEEETDSAPESSKKRFRISVSPTKTIAPASASRAQHKIVSQASSSSSIPHGRQPDPNKKASLVLPPLRAPRVQFDEDDSPRQID
On to B1, for which, in experiment [2], the binding entry is given as “no binding”.

(Values after publication PMC10895266, “The structure of the Caenorhabditis elegans TMC-2 complex suggests roles of lipid-mediated subunit contacts in mechanosensory transduction” (Proceedings of the National Academy of Sciences of the …, 2024).)
